Laboratory results reported in article PMC5709735, “Real‐time detection of condensin‐driven DNA compaction reveals a multistep binding mechanism” (The EMBO Journal, 2017).
These are yes or no findings as the source states them, for the method shown. Some binding calls cover weakened binding; strength is not graded here.

Legend:
Brn1 (S. cerevisiae) = biological target: T1, Brn1 (S. cerevisiae) (UniProt P38170); experiment: tandem affinity chromatography + SEC; subunits co-overexpressed in budding yeast; complexes purified from interphase cell extracts by the His12 tag on Brn1 and the triple StrepII tag on Smc4, followed by a gel filtration step
T1 sequence: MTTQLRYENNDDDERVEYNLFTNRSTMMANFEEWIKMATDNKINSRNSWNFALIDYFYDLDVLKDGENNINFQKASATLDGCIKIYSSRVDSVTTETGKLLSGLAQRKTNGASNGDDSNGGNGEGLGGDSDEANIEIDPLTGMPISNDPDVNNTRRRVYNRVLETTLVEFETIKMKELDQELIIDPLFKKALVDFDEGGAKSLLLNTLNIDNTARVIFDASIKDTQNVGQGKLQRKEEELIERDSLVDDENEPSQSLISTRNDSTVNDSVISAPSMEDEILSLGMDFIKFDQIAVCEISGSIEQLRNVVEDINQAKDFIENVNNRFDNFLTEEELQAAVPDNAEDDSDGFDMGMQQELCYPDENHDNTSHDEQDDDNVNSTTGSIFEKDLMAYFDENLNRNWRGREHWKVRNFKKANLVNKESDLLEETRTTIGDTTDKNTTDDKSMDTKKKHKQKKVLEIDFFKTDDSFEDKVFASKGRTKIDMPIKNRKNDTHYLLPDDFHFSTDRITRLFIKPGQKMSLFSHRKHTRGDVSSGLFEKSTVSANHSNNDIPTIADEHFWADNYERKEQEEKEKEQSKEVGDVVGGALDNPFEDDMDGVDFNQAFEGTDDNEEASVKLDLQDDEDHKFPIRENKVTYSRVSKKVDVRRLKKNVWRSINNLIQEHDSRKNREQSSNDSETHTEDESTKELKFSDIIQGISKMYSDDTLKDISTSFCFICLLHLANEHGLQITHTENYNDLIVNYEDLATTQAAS

[1] = biological target: T2, Brn1 K409D, R411D, K414D, K451D, K452D, K456D, K457D (S. cerevisiae) (UniProt P38170); experiment: as above
T2 sequence: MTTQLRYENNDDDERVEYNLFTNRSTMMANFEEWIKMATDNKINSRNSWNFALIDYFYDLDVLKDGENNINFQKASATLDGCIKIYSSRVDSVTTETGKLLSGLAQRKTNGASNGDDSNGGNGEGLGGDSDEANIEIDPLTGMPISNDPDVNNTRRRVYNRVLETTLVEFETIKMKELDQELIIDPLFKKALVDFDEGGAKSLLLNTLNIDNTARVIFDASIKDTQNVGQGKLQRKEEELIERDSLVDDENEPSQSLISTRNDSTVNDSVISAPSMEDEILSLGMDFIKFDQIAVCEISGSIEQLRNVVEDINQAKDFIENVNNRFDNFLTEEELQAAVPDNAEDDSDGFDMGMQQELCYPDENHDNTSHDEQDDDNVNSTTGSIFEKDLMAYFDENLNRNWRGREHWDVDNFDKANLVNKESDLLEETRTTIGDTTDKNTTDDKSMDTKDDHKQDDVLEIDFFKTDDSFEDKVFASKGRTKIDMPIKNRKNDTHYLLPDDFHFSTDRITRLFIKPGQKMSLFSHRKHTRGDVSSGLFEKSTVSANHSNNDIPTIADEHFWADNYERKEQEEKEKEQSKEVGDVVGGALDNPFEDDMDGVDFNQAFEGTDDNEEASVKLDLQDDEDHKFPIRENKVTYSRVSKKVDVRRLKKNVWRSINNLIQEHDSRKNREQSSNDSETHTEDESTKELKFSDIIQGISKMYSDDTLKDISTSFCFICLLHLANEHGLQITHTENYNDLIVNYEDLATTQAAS

binding (Brn1 (S. cerevisiae)): binds
binding [1]: binds
B1: Ycs4 (protein, UniProt Q06156 1-1176)
chain: MSGFSLSEYLTKFQTTDRESYPRLQDPSRELNVIIDQLAVSPEQIDASPDSLEALIDLCHDFPHLTPKLQTQLSYLISSSLSNLSKDIKANLSSNVNFTEIGGLIPQWKRHLEEYGYLIQVLLTFLQDELHKVSSQSTNLNRSAKNSKNDSANVELFKRDCNQMENLLESITKLLEINLSKIFQTTPEKDLFIGLFTRPLFVLLEIEPVTKVSSLKMFIQRILAMCVKNHGQSSSIQSSLMTNLTYFLHLSVFNAELLKLLNDEYNYPQLTEDILKEISTRVFNAKDTTGPKAISNFLIKLSELSPGIMLRQMNLVITLLNNSSITLRCSVVEACGNIVAELAQDPQTMEHYKQQIAVLIELLEERFQDSNPYVRTKAIQGCSKICDLSSKFNKSKAKFTSLAVRSLQDRSSLVRRNSVKLLSKLLLKHPFKAIHGSQLRLSEWEEYLKGSESQLNSTLKKVESQETLNDTIERSLIEEEVEQDEGQCRTELEGSFNKSAELSRIENEVENINATNTSVLMKLKLMIVYYKDAISFIKEIHKSIELISNLLFSKNRNEVLESMDFLVLADAFDIELSEFGIKKMLHLVWMKGTNDEGTSISVHLIECYKQLFLTAPDSCNMQEKAAHIAKNLINLSIGASIADLASLEQLLGMMYEQKLIDQHVINILWAIYNSASKASMQKEQNVNNRDSEKGFSKEQIHGSIIILGMLSLADNEIALKGLESLLNIGLGAVGLKDLTLCRYSCLALERMVPKRSTIITKAINQELEDVAVKKLYAIIINYTKDNEYYPMCEQALSALFTISSKPDILATDLIREKTMMTFGKPEEEDSILSLEQSSRVVSLSQLLFIVGQVAIKTLVYLEKCEAEFKKRKIEAETRNGKVKNQGADVTNTTQDNGGDKELEMIGGTNEDDFTDAIQFVKENELLFGEKSILGKFCPIVEEIVSNSSRFSDPMLQRTATLCLEKLMCLSSKYCEKSLPLLITVMEKSPDPTIRSNAVLGLGDMAVCFNNLVDENTDYLYRRLHDENLMVQRTCLMTVTFLILAGQVKVKGQLGEMAKCLDNPDQGISDMCRLFFTELASKDNAIYNGFIDIFSNLSSDDLLGKESFKKIIKFLLTFIDKERHQKQLNEKLVGRLRKCETQKQWDDIAFVLNNLPYKNEDVTALLEQGFKVVSAKE
